Test results: the supplement of paper PMC11098740
This is one part of the list. Many values rest on one well or one pass, so single values are uncertain.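 Pooled together, 41 HAP1 clones carry intronic fluorescent tags on 61 cancer-associated proteins, and each clone is recognized by its imaging pattern. Measurements are benchmarked against DMSO-treated control wells. dBET6, a BRD4 degrader, served as the positive control.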

Chains of the proteins cited; added tags and fusions are not shown.
UniProt O14980, whole entry: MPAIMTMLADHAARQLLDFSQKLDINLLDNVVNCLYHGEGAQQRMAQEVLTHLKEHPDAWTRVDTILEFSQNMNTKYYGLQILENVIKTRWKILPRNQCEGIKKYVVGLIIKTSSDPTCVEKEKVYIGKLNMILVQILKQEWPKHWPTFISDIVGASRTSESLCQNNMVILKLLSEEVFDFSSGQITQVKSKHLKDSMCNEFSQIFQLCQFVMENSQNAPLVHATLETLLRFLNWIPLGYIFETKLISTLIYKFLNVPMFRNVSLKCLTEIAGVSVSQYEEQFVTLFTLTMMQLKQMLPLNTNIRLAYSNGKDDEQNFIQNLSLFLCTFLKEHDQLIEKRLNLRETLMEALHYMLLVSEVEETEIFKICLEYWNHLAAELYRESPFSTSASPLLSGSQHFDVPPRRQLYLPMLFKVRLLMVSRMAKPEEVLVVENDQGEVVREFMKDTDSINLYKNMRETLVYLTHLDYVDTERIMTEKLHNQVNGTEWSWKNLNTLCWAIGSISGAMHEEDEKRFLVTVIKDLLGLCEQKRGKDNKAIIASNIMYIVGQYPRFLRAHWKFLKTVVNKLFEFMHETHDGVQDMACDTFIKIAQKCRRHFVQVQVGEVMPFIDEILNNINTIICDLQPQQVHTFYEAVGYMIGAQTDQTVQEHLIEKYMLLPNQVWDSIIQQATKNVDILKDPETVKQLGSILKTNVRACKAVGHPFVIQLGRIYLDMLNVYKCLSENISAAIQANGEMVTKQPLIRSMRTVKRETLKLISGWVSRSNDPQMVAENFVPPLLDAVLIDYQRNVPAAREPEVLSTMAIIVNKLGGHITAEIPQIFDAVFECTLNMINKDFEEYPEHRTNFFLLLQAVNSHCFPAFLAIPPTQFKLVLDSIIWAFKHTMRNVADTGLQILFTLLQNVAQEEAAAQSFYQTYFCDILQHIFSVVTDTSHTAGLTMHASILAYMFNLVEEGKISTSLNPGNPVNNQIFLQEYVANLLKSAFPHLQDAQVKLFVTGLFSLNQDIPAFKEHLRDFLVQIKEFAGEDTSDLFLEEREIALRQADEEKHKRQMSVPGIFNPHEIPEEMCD

What was measured:
[1] = biological target: BRD4 (intron 10 mScarlet tag, HAP1) (UniProt O60885); assay: BRD4 median nuclear fluorescence intensity change vs DMSO (log2 fold change); higher = more BRD4 protein; details: 6 h
[2] = biological target: XPO1 (intron 15 mScarlet tag, HAP1) (UniProt O14980); assay: XPO1 fluorescence intensity change vs DMSO (log2 fold change); higher = more XPO1 protein; details: 6 h

| SMILES | BRD4 median nuclear fluorescence intensity change (log2) [1] | XPO1 fluorescence intensity change (log2) [2] |
| --- | --- | --- |
| C[C@]12C=CC(=O)C=C1CC[C@@H]1[C@@H]2[C@@H](O)C[C@@]2(C)[C@H]1CC[C@]2(O)C(=O)CO [prednisolone] (10 µM) | 0.132 | – |
| CCC(C)n1ncn(-c2ccc(N3CCN(c4ccc(OCC5COC(Cn6cncn6)(c6ccc(Cl)cc6Cl)O5)cc4)CC3)cc2)c1=O (configuration not stated) [itraconazole] (10 µM) | 0.0315 | – |
| NS(=O)(=O)Cc1noc2ccccc12 [zonisamide] (10 µM) | 0.049 | – |
| O=C(O)C1(C(=O)O)CCC1.[NH2-].[NH2-].[Pt+2] [carboplatin] (20 µM) | 0.159 | – |
| CCCSc1ccc2[nH]c(NC(=O)OC)nc2c1 [albendazole] (10 µM) | -0.0171 | – |
| Nc1nc(N)c2nc(-c3ccccc3)c(N)nc2n1 [triamterene] (9.99945 µM) | 0.0677 | – |
| O=C1C(O)=C([C@H]2CC[C@H](c3ccc(Cl)cc3)CC2)C(=O)c2ccccc21 [atovaquone] (10 µM) | 0.0321 | – |
| CCC(CC)O[C@@H]1C=C(C(=O)O)C[C@H](N)[C@H]1NC(C)=O [oseltamivir acid] (10 µM) | 0.146 | – |
| O=C1c2c(O)ccc(O)c2C(=O)c2c(NCCNCCO)ccc(NCCNCCO)c21 [mitoxantrone] (0.1144 µM) | -0.043 | – |
| CCC1(c2ccccc2)NC(=O)N(C)C1=O (configuration not stated) [mephenytoin] (10 µM) | 0.0439 | – |
| CN(CCOc1ccc(CC2SC(=O)NC2=O)cc1)c1ccccn1 (configuration not stated) [rosiglitazone] (10.0005 µM) | 0.0307 | – |
| COc1cc(C)c(/C=C/C(C)=C/C=C/C(C)=C/C(=O)O)c(C)c1C [acitretin] (9.99941 µM) | -0.0624 | – |
| Cc1nc(-c2ccc(OCC(C)C)c(C#N)c2)sc1C(=O)O [febuxostat] (10 µM) | 0.028 | – |
| CC(=O)Nc1nnc(S(N)(=O)=O)s1 [acetazolamide] (10 µM) | 0.0453 | – |
| CC(=O)c1c(C)c2cnc(Nc3ccc(N4CCNCC4)cn3)nc2n(C2CCCC2)c1=O [palbociclib] (10 µM) | 0.142 | – |
| O=c1n(CCCN2CCN(c3cccc(Cl)c3)CC2)nc2ccccn12 [trazodone] (10 µM) | 0.0948 | – |

Taken from the results shown for reference:

| SMILES | BRD4 median nuclear fluorescence intensity change (log2) [1] | XPO1 fluorescence intensity change (log2) [2] |
| --- | --- | --- |
| CCC(C)n1ncn(-c2ccc(N3CCN(c4ccc(OCC5COC(Cn6cncn6)(c6ccc(Cl)cc6Cl)O5)cc4)CC3)cc2)c1=O (configuration not stated) [itraconazole] (10 µM) | 0.0315 | – |
| NS(=O)(=O)Cc1noc2ccccc12 [zonisamide] (10 µM) | 0.049 | – |

Additional results follow.

| SMILES | BRD4 median nuclear fluorescence intensity change (log2) [1] | XPO1 fluorescence intensity change (log2) [2] |
| --- | --- | --- |
| O=C(Cc1ccc2c(c1)CCC2)NCc1cccs1 (10 µM) | 0.031 | 0.0562 |
| CCCCCOC(=O)Nc1nc(=O)n([C@@H]2O[C@H](C)[C@@H](O)[C@H]2O)cc1F [capecitabine] (20 µM) | -0.0162 | – |
| CCn1cc(C(=O)O)c(=O)c2cc(F)c(N3CCNCC3)nc21 [enoxacin] (10 µM) | 0.0954 | – |
| CC1CNc2c(cccc2S(=O)(=O)N[C@@H](CCCNC(=N)N)C(=O)N2CC[C@@H](C)C[C@@H]2C(=O)O)C1 (some centres not stated) [argatroban] (10.0004 µM) | 0.0386 | – |
| CNC(=O)c1cc(Oc2ccc(NC(=O)Nc3ccc(Cl)c(C(F)(F)F)c3)cc2)ccn1 [sorafenib] (12.21 µM) | -0.0403 | – |
| CO[C@H]1C[C@@H]2CC[C@@H](C)[C@@](O)(O2)C(=O)C(=O)N2CCCC[C@H]2C(=O)O[C@H]([C@H](C)C[C@@H]2CC[C@@H](OC(=O)C(C)(CO)CO)[C@H](OC)C2)CC(=O)[C@H](C)/C=C(\C)[C@@H](O)[C@@H](OC)C(=O)[C@H](C)C[C@H](C)/C=C/C=C/C=C/1C [temsirolimus] (20 µM) | -0.0976 | – |
| CC(C)C[C@H](NC(=O)CNC(=O)c1cc(Cl)ccc1Cl)B(O)O [ixazomib] (1 µM) | -0.0767 | – |
| S=c1nc[nH]c2nc[nH]c12 [6-mercaptopurine] (10.0013 µM) | 0.0164 | – |
| CC(=O)Oc1ccccc1C(=O)Nc1ncc([N+](=O)[O-])s1 [nitazoxanide] (10 µM) | -0.0748 | – |
| CC(c1cc2ccccc2s1)N(O)C(N)=O (configuration not stated) [zileuton] (10 µM) | 0.0541 | – |
| CCC(=O)NCC[C@@H]1CCc2ccc3c(c21)CCO3 [ramelteon] (10 µM) | 0.163 | – |
| c1ccc(CC2=NCCN2)cc1 [tolazoline] (10 µM) | 0.0441 | – |
| CC1(C)N=C(N)N=C(N)N1c1ccc(Cl)cc1 [cycloguanil] (11.4 µM) | 0.00241 | – |
| COc1cc2ncnc(Nc3ccc(F)c(Cl)c3)c2cc1OCCCN1CCOCC1 [gefitinib] (20 µM) | 0.147 | – |
| CO[C@H]1C[C@@H]2CC[C@@H](C)[C@@](O)(O2)C(=O)C(=O)N2CCCC[C@H]2C(=O)O[C@H]([C@H](C)C[C@@H]2CC[C@@H](OCCO)[C@H](OC)C2)CC(=O)[C@H](C)/C=C(\C)[C@@H](O)[C@@H](OC)C(=O)[C@H](C)C[C@H](C)/C=C/C=C/C=C/1C [everolimus] (20 µM) | -0.00641 | – |
